Measurements: PMC7092623

B1: Protein SREK1IP1 (protein, UniProt Q3B7G7 1-158)
chain: MAAPGPNKDNIRAGCKRCGYPGHLTFECRNFLRVDPRKDIVLDVSSTSTEESDEEEQEALSKEKIFGSHSKGSQEDSRKEKHKKKSKERSRGKAKKRSYSSSDEEEDEMSKKKKKRKSNKKKGKKEKREKERKHKKKQKKKDTESSSSDSSSESSDTD
B2: Opsin-1, short-wave-sensitive 2 (protein, UniProt Q9W6A8 1-354)
chain: MKQQQQTPELFEDFHMPITLDVSNISAYSPFLVPQDHLGHSGVFMGMSAFMLFLFIAGTAINVLTIVCTIQYKKLRSHLNYILVNLAISNLWVSVFGSSVAFYAFYKKYFVFGPIGCKIEGFTSTIGGMVSLWSLAVVALERWLVICKPLGNFTFKTPHAIAGCILPWCMALAAGLPPLLGWSRYIPEGLQCSCGPDWYTTNNKFNNESYVMFLFCFCFAVPFSTIVFCYGQLLITLKLAAKAQADSASTQKAEREVTKMVVVMVFGFLICWGPYAIFAIWVVSNRGAPFDLRLATIPSCLCKASTVYNPVIYVLMNKQFRSCMMKMVFNKNIEEDEASSSSQVTQVSSVAPEK
B3: Mitochondrial 2-oxoglutarate/malate carrier protein (protein, UniProt A0A8M1MZV6 1-308)
chain: MAAAADTAKPKTSPKSIKFLFGGLAGMGATVFVQPLDLVKNRMQLSGQGSKAREYKTSFHAVGSILRNEGVRGIYTGLSAGLLRQATYTTTRLGIYTILFERMSKADGTPPNFFMKALIGMTAGATGAFVGTPAEVALIRMTADGRLPPDQRRGYTNVFNALVRITREEGVTTLWRGCIPTMARAVVVNAAQLASYSQSKQALLDSGYFRDDILCHFCASMISGLVTTAASMPVDIVKTRIQNMRMIDGKPEYNNGLDVLVKVIRNEGFFSLWKGFTPYYARLGPHTVLTFIFLEQMNKFYKIYFLDS
B4: Sideroflexin (protein, UniProt A1L257 1-322)
chain: MSGDLPLNINIKEPRWDQGTFMGRAQHFFMVTDPRNVLLSSEVLEDARVTVENYRLGVVKPGLTEDALWRAKYIYDSAFHPDTGEKMLLVGRMSAQVPMNMTITGCMLTFYRTTPAVVFWQWVNQSFNAVVNYTNRSGDAPITVNQLGAAYVSATTGAVVTALSLKALTKHLPAIISRFVPFAAVAAANCINIPFMRQRELKCGIPVTDAEGKRLGESTNAAQQAIVQVVVSRIGMAVPAMAIPPVIMNALEKKAFLKRFPVLNAPLQVGLVGFCLVFATPLCCALFPQKSSMKVSSLEPELQESIRQSNPHISTVYFNKGL
B5: Retinal G-protein coupled receptor a (protein, UniProt Q567Y2 1-295)
chain: MVTSYPLPEGFSEFDVFSLGSCLLVEGLLGFFLNAVTVIAFLKIRELRTPSNFLVFSLAMADMGISTNATVAAFSSFLRYWPYGSDGCQTHGFQGFMTALASIHFIAAIAWDRYHQYCTRTKLQWSSAITLVLFTWLFTAFWAAMPLFGWGEYDYEPLRTCCTLDYSKGDRNYVSYLIPMSIFNMGIQVFVVLSSYQSIDKKFKKTGQAKFNCGTPLKTMLFCWGPYGILAFYAAVENATLVSPKLRMIAPILAKTSPTFNVFVYALGNENYRGGIWQLLTGQKIESPAIENKSK
B6: Phosphodiesterase subunit 6C (protein, UniProt A0A8M1PI31 1-852)
chain: MADKDSVEKYLENNPQFAKEYFDKKVRCEVIAAAFEEKLDIKDPASFKDVTQVQEAAILFDMIQDMHSQPVMEKAMHKVLQRICLLVNADRCSYFIARARNGIPELATCLFDVTPTSKYEANLVNPQSEIVFPTDTGIVGQIVTTKKPANVPDVKQNPRFSDFVDKQTGYTTKNMMAAPLMQGKDPLGVVMAINKVGANEFSKEDEDVFSKYIIFATVIALQHYTNYMYNVESRRSQVLLWSASKVFEELTDIERQFHKALYTVRTYLQCERYSCGLLDMTKEKEFYDEWPIKLGDVEPYKGPKTPDGREIIFYKIIDYLLEGKEEIKVIPNPPADHWALVSGLPTYVAENGFICNMMNVAADEYFTFQKEAVDETGFVIKNVLSLPIVNKKEEIVGVATFFNRKDGKPFEEQDEQITEALTQFLGWSVLNCDTYDKLNRMEWRKEIAEEMVMYQTKATPAEVQQILNTKEKFDQNPEDCDQKEMYKLLRANIPEAKDVDLLEFSFSDFPLTETDLIKCGIRCFFELGVVEKFKVPAEVLTRWMYTVRKGYRDITYHNWRHGFNVGQTMFCLLQTGKLRRYYTDLDAFAMVAAAFCHDIDHRGTNNLYQTKSASPLAKLHGSSILERHHLQYSKNLMAEENVNIFQSLQKRQFETVQHLHDVCIIATDLALYFKKRTMFQKIVDATEPMTKEEEMVAHVANNPIRKEIIMAMMMTGCDLSAITKPWEVQSKVALMVAAEFWEQGDLERTVLDQQPIPMMDRNKSDELPKMQCGFIDFVCSFVYKEFSRFHKEITPMFDGLNNNRVHWKELADIYQAKIDAIANEKKRLEEEQAKKGGEEGGEGGKSKTCTIF
B7: Thioredoxin (protein, UniProt Q7ZUI4 1-108)
chain: MIVVIEDQDGFDKALAGAGDKLVVVDFTATWCGPCQSIAPFYKGLSENPDYSNVVFLKVDVDDAQDVAQSCEIKCMPTFHFYKNGKKLDDFSGSNQTKLEEMVKQHKN
B8: BetaA1c-crystallin 7 (protein, UniProt B5M4A7 1-206)
chain: MNRVTAIQTNPSASGIDMAPCFKVTVFEQEHFQGKCQELTSECRNIQERGFDNIRSIRVESGAWVGYEHHDFQGQQFVLEKGEYPQWDAYSGNLGYHVERMMSLRPICSAVHQDSRMTIFEKENFMGRSVELCDDYPSLQAMGWCDKQVGSMHVQCGAFVCYEYPGYRGQQYIMECDKHSGDYQHWKDWGSHCQTPQIQSIRRIQH

Target: eGFP-Rab28 Q72L (GTP-preferring) (zebrafish) (UniProt Q7ZVW0)
Experiment: affinity purification with mass spectrometry; eGFP-Rab28 (WT, Q72L or T26N) held on GFP-Trap beads from 5 dpf larval whole-eye lysates (100 eyes per replicate); IP lysis buffer 50 mM Tris HCl pH 7.5, 150 mM NaCl, 10 mM MgCl2, 1% NP-40, 1 mM DTT; 4°C, 2 h or overnight; on-bead trypsin digest, Q-Exactive; LFQ, t-test against eGFP only control

binding	Binder
binds	B1
binds	B2
binds	B3
binds	B4
binds	B5
binds	B6
binds	B7

Target: eGFP-Rab28 T26N (GDP-preferring) (zebrafish) (UniProt Q7ZVW0)
Experiment: as above

binding	Binder
binds	B1
binds	B2
binds	B3
binds	VHLKRGVPDRLLYRSTMALTVGGVLYCLVALYLAAQPKKK (peptide, UniProt Q7SXI1 76-115) [Cox7a2l protein]
binds	B4
binds	B5
binds	B6
binds	B8
binds	B7

Target: eGFP-Rab28 (wild type) (zebrafish) (UniProt Q7ZVW0)
Experiment: as above

binding	Binder
binds	B3
binds	B6

No constants are given. Whether binding was seen depends on the method and setting. In cells and extracts the contact can be indirect. These calls come from enrichment with a bait or labelling near it, and not all partners need be listed.
